Some entries share one result that the patent states for a list of compounds. For at least one compound, name, drawing or mass did not settle the structure.
Experiment: moisture uptake / water adsorption and desorption isotherms
Assay type: physicochemical

| Compound | change in mass on exposure to humidity (10% RH to 90% RH at 25° C.) [%] | water absorbed, % of its mass (at low relative humidity (10% RH)) |
| --- | --- | --- |
| CC(=O)c1c(C)c2cnc(Nc3ccc(N4CCNCC4)cn3)nc2n(C2CCCC2)c1=O [Formula 1, 6-acetyl-8-cyclopentyl-5-methyl-2-(5-piperazin-1-yl-pyridin-2-ylamino)-8H-pyrido[2,3-d]pyrimidin-7-one] | < 2 | – |
| CC(=O)c1c(C)c2cnc(Nc3ccc(N4CCNCC4)cn3)nc2n(C2CCCC2)c1=O.Cl.Cl [di-HCl salt] | – | greater than 2% |

Reference: patent US7863278B2, “Isethionate salt of a selective CDK4 inhibitor” (Warner-Lambert CompanyLLC, priority 2003, dated 2011)
